Paper PMC10813020
No constants are given. Whether binding was seen depends on the method and setting. Binding seen in cells or lysates may run through a third protein. Some results given as binding are weak or reduced against the parent protein; the word gives no strength.

Chains of the proteins cited; added tags and fusions are not shown.
UniProt Q5H8C4: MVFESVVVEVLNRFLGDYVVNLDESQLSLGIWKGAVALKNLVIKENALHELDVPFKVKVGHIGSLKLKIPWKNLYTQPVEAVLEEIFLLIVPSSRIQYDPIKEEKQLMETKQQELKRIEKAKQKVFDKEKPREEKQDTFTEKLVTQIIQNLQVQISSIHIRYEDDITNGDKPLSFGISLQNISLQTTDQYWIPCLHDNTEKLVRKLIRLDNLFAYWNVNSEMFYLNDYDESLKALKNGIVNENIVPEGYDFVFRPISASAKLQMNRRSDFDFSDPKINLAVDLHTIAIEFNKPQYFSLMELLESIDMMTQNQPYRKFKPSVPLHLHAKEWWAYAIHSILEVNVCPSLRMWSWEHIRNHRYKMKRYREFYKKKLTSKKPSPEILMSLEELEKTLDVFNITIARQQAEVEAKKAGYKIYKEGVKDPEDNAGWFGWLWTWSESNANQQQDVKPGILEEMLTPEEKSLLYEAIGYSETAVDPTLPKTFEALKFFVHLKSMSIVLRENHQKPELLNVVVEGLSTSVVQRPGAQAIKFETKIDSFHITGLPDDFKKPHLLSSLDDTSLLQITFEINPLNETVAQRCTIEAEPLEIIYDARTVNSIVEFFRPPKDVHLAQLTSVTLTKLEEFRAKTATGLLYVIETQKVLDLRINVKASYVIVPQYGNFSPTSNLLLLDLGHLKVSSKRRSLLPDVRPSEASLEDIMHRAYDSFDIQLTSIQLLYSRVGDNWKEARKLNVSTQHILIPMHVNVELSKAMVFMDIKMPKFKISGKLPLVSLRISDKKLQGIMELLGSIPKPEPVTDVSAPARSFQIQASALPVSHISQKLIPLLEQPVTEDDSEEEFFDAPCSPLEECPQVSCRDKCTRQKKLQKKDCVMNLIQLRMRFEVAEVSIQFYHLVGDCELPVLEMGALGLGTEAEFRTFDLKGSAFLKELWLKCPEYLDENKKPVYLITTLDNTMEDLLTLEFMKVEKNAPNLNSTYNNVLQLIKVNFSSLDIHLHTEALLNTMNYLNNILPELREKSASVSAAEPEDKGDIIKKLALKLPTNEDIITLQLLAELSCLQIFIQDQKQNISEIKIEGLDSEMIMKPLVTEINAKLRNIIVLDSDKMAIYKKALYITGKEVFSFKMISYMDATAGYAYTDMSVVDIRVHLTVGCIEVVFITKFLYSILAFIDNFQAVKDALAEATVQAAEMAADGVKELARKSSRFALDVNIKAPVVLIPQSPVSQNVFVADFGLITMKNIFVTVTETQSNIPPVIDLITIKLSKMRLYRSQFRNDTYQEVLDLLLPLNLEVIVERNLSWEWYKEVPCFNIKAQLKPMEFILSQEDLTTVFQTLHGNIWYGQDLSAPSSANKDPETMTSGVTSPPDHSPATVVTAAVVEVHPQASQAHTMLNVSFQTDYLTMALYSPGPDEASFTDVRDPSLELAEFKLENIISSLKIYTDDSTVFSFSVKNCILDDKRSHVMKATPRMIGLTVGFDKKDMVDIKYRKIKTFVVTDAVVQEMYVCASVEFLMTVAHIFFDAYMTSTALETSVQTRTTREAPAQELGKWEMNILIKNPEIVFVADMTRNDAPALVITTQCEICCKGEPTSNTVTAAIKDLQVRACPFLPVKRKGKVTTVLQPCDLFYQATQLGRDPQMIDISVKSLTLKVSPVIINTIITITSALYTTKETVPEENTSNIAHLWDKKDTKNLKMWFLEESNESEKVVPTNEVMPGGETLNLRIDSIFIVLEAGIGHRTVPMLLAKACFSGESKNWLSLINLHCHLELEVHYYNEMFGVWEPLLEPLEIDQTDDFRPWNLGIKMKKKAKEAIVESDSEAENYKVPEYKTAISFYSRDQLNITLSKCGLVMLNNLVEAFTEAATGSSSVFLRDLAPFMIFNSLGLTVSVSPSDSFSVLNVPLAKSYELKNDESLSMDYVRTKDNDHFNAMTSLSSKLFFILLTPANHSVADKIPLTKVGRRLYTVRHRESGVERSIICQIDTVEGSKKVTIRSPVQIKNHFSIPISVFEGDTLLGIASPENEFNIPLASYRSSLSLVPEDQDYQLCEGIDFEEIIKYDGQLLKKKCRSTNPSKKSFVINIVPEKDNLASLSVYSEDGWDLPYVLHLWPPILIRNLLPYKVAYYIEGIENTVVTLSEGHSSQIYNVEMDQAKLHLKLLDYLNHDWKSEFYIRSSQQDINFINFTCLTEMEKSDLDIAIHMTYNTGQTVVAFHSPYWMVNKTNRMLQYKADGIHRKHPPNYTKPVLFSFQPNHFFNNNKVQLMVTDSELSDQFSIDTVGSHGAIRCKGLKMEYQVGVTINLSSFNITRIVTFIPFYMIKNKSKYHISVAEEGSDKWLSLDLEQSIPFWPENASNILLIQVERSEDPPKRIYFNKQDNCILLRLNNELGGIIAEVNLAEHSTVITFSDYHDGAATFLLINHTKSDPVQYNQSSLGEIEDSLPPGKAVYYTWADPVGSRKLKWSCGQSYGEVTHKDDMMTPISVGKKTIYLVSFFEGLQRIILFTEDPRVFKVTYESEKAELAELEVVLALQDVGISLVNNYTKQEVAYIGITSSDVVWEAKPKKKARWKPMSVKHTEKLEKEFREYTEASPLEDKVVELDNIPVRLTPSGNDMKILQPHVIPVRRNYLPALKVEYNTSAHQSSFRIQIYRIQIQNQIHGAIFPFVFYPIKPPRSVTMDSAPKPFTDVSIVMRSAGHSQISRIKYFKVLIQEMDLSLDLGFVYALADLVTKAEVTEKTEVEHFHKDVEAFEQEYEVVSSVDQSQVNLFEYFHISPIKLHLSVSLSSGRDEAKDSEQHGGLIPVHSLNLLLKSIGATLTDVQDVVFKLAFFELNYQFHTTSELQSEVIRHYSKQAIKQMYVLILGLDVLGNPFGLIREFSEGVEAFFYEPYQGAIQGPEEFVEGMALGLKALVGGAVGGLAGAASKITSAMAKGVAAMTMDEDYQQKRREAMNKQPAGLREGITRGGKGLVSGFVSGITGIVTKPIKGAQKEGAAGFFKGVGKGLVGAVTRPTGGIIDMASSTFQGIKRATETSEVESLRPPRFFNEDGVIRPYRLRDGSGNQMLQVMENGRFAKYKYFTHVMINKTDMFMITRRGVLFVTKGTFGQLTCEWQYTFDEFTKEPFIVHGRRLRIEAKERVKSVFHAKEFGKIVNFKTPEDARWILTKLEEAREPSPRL

T1: isocitrate dehydrogenase 3 subunit alpha (IDH3A) (mouse (endogenous in epididymal sperm)) (UniProt Q9D6R2)
T1 sequence: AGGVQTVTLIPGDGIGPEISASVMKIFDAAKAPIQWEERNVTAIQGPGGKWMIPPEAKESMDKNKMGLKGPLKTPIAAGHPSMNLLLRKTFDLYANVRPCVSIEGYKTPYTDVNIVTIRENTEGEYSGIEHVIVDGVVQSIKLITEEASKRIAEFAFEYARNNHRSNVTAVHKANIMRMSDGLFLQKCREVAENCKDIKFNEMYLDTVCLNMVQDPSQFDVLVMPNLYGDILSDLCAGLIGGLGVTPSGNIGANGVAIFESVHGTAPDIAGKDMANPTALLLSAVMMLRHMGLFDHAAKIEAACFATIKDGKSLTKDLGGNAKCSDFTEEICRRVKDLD


Columns and labels:
[1] = target: T1, isocitrate dehydrogenase 3 subunit alpha (IDH3A) (mouse (endogenous in epididymal sperm)); assay: co-IP; anti-chorein or anti-IDH3A antibody on Dynabeads Protein G; 500 µg soluble fraction of wild-type mouse epididymal sperm lysate (1% NP-40), 10 min at room temperature, three washes with lysis buffer; eluates by Western blotting
[2] = target: chorein (VPS13A, vacuolar protein sorting 13 homolog A) (mouse (endogenous in epididymal sperm)) (UniProt Q5H8C4); assay: as above

| binding [1] | binding [2] | Molecule |
| --- | --- | --- |
| binds |  | chorein (VPS13A, vacuolar protein sorting 13 homolog A) (from UniProt Q5H8C4 1-3166) |
|  | binds | isocitrate dehydrogenase 3 subunit alpha (IDH3A) (protein, UniProt Q9D6R2 28-366) AGGVQTVTLIPGDGIGPEISASVMKIFDAAKAPIQWEERNVTAIQGPGGKWMIPPEAKESMDKNKMGLKGPLKTPIAAGHPSMNLLLRKTFDLYANVRPCVSIEGYKTPYTDVNIVTIRENTEGEYSGIEHVIVDGVVQSIKLITEEASKRIAEFAFEYARNNHRSNVTAVHKANIMRMSDGLFLQKCREVAENCKDIKFNEMYLDTVCLNMVQDPSQFDVLVMPNLYGDILSDLCAGLIGGLGVTPSGNIGANGVAIFESVHGTAPDIAGKDMANPTALLLSAVMMLRHMGLFDHAAKIEAACFATIKDGKSLTKDLGGNAKCSDFTEEICRRVKDLD |
| binds |  | phosphoglycerate kinase 2 (PGK2) (protein, UniProt P09041 1-417) MALSAKLTLDKVDLKGKRVIMRVDFNVPMKNNQITNNQRIKAAIPSIKHCLDNGAKSVVLMSHLGRPDGIPMPDKYSLEPVADELKSLLNKDVIFLKDCVGPEVEQACANPDNGSIILLENLRFHVEEEGKGKDSSGKKISADPAKVEAFQASLSKLGDVYVNDAFGTAHRAHSSTVGVNLPQKASGFLMKKELDYFSKALEKPERPFLAILGGAKVKDKIQLIKNMLDKVNFMIIGGGMAYTFLKELKNMQIGASLFDEEGATIVKEIMEKAEKNGVKIVFPVDFVTGDKFDENAKVGQATIESGIPSGWMGLDCGPESIKINAQIVAQAKLIVWNGPIGVFEWDAFAKGTKALMDEVVKATSNGCVTIIGGGDTATCCAKWGTEDKVSHVSTGGGASLELLEGKILPGVEALSNM |
|  | binds | acetyl-CoA acetyltransferase 1 (ACAT1) (protein, UniProt Q8QZT1 31-424) ASKPTLNEVVIVSAIRTPIGSFLGSLASQPATKLGTAAIQGAIEKAGIPKEEVKEVYMGNVIQGGEGQAPTRQATLGAGLPISTPCTTVNKVCASGMKAIMMASQSLMCGHQDVMVAGGMESMSNVPYVMSRGATPYGGVKLEDLIVKDGLTDVYNKIHMGNCAENTAKKMNISRQEQDTYALSSYTRSKEAWDAGKFASEITPITISVKGKPDVVVKEDEEYKRVDFSKVPKLKTVFQKENGTITAANASTLNDGAAALVLMTAEAAQRLNVKPLARIAAFADAAVDPIDFPLAPAYAVPKVLKYAGLKKEDIAMWEVNEAFSVVVLANIKMLEIDPQKVNIHGGAVSLGHPIGMSGARIVVHMAHALKPGEFGLASICNGGGGASALLIEKL |
